According to patent publication US11648211B2, “Nanoencapsulated combination drug formulations” (priority 2019, dated 2023):
At least one structure is not confirmed: it was looked up by name or label, or the drawing left a doubt.

Experiments:
[1] = tested on: γ-H2AX and cleaved PARP expression in 231 cells; test: Western blot biomarkers of DNA damage and apoptosis after 48 hour treatment; type: cell-based, human; details: compared to TLZ or nTLZ only
advanced breast cancer = details: in vivo; cited from earlier work

CCc1cnn2c(NCc3ccc[n+]([O-])c3)cc(N3CCCC[C@H]3CCO)nc12 [DCB, Dinaciclib]
DNA double strand breaks, γ-H2AX expression [1]: much higher
time to disease progression compared to capecitabine (advanced breast cancer): shorter
